Here are results for one sequence from article PMC11169542 (Nature Communications, 2024).

Where a sequence shows no end group, the ends are not given.

This series can be described thus: peptide made by a vendor. The following applies: whole synthesis.

For CDAGRKQKC, the “purity (crude or final not stated)” value came to 95%.
